These are yes or no findings as the source states them, for the method shown. For some of these results: Binding calls can cover weak binding; strength is not graded here. For some of these results: In cells and extracts the contact can be indirect.
Key:
[1] = target: Proprotein convertase subtilisin/kexin type 9 (PCSK9), recombinant full-length (human) (UniProt Q8NBP7); assay: ELISA; as a5 but in Dulbecco's PBS (with calcium), neutral pH; both purified
[2] = target: Proprotein convertase subtilisin/kexin type 9 (PCSK9), recombinant full-length (human) (UniProt Q8NBP7); assay: ELISA; plate coated with 5 μg/ml PCSK9; 4 μg/ml APLP2 for 2 h in ELISA buffer (150 mM NaCl, 20 mM CaCl2, 20 mM MES, pH 5.0, 5.5, 6.0 or 6.5); fixed; detected with anti-APLP2; both purified
[3] = target: Proprotein convertase subtilisin/kexin type 9 (PCSK9), recombinant full-length (human) (UniProt Q8NBP7); assay: co-IP; purified recombinant proteins, 3 μg/ml each, mixed at pH 6.0 in IP buffer; J16- or IC-coated protein A Dynabeads, 30 min; eluted by boiling; Western blot; both purified
[4] = target: Proprotein convertase subtilisin/kexin type 9 (PCSK9), recombinant full-length (human) (UniProt Q8NBP7); assay: co-IP; PCSK9 premixed with J16 (or IC) added to HepG2 lysate, IP buffer pH 6.0, protein A beads, eluted by boiling, Western blot; only the target purified
[5] = target: Proprotein convertase subtilisin/kexin type 9 (PCSK9), recombinant full-length (human) (UniProt Q8NBP7); assay: co-IP; as a3 but at pH 7.4; only the target purified
[6] = target: APLP2-extracellular domain (ECD) (amino acids 1–692) (human) (UniProt Q06481); assay: ELISA; plate coated with 4 μg/ml APLP2; 4 μg/ml PCSK9 premixed with 12 μg/ml IC, J16 or 5F6 and LDLR-ECD in pH 6.0 buffer; detected with anti-LDLR; both purified
[7] = target: APLP2-extracellular domain (ECD) (amino acids 1–692) (human) (UniProt Q06481); assay: ELISA; plate coated with 4 μg/ml APLP2; increasing concentrations of PCSK9 premixed with 2.5 μg/ml LDLR-ECD; pH 6.0 buffer; detected with anti-LDLR; both purified

By UniProt entry, the sequences of proteins in these tests, tags left out. Where a name states a change or a piece, a line headed by the entry shows the natural chain unless it says otherwise.
UniProt Q8NBP7: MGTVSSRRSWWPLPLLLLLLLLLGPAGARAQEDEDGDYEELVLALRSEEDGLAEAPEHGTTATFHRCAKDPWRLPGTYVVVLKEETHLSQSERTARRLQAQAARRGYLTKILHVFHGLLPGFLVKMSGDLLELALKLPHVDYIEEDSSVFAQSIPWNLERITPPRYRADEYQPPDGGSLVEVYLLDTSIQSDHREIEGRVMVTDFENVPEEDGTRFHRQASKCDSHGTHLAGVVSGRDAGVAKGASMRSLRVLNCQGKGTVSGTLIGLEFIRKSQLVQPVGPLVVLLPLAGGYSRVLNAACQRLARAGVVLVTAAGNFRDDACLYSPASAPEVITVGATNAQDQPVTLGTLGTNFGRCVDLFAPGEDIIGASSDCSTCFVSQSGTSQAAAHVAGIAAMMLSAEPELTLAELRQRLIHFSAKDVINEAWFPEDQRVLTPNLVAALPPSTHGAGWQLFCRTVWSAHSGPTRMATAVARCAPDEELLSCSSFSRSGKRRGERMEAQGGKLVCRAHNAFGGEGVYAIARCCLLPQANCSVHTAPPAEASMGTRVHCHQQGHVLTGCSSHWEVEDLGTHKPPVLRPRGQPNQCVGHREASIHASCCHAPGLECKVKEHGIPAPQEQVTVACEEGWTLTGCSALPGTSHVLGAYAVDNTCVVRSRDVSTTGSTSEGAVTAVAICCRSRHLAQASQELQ
UniProt Q06481: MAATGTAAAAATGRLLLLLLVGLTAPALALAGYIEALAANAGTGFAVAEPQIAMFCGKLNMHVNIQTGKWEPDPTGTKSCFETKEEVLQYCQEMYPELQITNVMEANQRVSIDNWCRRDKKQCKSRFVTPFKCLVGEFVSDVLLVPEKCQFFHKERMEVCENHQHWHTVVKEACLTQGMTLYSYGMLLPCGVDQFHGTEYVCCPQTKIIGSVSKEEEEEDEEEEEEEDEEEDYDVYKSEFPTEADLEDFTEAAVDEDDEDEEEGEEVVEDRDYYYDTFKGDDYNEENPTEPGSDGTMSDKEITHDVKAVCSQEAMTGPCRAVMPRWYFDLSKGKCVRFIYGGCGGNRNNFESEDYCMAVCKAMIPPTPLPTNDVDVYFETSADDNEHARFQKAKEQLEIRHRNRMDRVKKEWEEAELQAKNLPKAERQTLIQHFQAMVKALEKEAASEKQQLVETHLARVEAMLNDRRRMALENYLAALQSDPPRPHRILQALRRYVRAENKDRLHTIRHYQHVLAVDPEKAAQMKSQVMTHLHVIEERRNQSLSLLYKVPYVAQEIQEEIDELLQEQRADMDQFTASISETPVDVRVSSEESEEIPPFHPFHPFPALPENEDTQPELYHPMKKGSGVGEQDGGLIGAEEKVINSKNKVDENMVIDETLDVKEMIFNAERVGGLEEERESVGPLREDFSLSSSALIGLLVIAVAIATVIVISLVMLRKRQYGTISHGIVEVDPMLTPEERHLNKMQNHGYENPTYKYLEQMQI
UniProt P05067: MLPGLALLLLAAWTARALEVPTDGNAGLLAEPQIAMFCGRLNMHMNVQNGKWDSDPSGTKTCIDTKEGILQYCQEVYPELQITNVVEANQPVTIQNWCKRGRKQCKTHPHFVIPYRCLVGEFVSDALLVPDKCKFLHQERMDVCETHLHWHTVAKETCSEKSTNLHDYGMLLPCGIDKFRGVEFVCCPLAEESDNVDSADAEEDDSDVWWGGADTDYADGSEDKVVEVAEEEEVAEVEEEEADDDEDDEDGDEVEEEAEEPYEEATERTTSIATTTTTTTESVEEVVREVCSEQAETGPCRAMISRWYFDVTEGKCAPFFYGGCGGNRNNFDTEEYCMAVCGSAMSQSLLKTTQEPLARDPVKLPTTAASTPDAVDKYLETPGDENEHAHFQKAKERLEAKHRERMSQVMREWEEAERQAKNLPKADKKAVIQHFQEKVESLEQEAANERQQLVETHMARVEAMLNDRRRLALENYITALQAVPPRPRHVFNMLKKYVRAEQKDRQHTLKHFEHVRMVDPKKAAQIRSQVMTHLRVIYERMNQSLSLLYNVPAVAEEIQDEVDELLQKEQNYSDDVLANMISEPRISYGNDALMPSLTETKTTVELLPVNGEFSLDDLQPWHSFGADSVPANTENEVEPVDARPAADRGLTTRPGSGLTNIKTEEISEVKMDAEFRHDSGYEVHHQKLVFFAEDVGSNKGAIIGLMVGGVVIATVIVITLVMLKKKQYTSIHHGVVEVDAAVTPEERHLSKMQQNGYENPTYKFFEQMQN

Substance: APLP2-extracellular domain (ECD) (amino acids 1–692) (from UniProt Q06481 32-692) (domain or fragment)
- binding [1]: no binding (only at neutral pH; 4 μg/ml APLP2)
- binding [2]: binds
- binding [3]: binds

Substance: Amyloid precursor protein (APP)-ECD (amino acids 1–699) (from UniProt P05067 18-699) (domain or fragment)
- binding [3]: binds

Substance: Amyloid β A4 protein (APP), endogenous (from UniProt P05067 18-770)
- binding [4]: binds
- binding [5]: no binding (only at pH 7.4)

Substance: Amyloid-like protein 2 (APLP2), endogenous (from UniProt Q06481 32-763)
- binding [4]: binds
- binding [5]: no binding (only at pH 7.4)

Substance: Proprotein convertase subtilisin/kexin type 9 (PCSK9), recombinant full-length (from UniProt Q8NBP7)
- binding [6]: binds
- binding [7]: binds
